This note sets out measurements from US20220267441A1.

By UniProt entry, the sequences of proteins in these tests, tags left out. Where a name states a change or a piece, a line headed by the entry shows the natural chain unless it says otherwise.
UniProt P08575: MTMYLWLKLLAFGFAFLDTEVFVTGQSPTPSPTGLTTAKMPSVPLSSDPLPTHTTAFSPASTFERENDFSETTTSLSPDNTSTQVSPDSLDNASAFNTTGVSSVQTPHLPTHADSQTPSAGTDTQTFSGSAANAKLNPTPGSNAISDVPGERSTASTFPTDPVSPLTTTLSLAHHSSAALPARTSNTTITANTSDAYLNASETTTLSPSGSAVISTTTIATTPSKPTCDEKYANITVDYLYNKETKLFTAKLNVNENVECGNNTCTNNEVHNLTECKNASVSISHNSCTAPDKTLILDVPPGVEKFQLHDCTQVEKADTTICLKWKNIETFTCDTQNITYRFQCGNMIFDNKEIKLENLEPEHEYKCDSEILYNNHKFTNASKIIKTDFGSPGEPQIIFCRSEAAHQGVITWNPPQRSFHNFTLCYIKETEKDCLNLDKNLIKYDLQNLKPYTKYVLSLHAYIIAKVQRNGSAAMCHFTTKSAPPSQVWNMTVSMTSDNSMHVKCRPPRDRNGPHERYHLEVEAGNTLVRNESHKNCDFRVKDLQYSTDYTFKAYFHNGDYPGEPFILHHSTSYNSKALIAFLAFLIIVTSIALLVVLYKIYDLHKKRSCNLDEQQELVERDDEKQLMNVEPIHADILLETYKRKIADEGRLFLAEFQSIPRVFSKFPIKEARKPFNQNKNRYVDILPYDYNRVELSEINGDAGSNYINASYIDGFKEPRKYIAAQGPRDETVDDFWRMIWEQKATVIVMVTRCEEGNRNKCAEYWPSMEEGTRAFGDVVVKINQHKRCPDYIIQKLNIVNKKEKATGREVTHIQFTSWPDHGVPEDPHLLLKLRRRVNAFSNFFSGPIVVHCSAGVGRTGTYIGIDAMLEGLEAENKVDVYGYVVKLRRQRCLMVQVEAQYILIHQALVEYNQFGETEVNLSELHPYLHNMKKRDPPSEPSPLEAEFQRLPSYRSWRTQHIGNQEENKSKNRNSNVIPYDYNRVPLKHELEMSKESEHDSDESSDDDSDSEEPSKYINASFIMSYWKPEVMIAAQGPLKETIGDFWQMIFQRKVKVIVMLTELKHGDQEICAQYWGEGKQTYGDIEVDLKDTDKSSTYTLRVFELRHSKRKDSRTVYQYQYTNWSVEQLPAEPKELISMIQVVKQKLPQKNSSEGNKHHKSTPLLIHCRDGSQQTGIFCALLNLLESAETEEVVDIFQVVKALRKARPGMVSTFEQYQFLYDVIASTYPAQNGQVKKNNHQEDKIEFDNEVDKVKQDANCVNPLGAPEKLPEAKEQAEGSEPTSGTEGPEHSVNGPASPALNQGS

Residue numbers refer to the chain shown, from its start. Names may count otherwise. No constants are given. Whether binding was seen depends on the method and setting. Some entries that bind do so weakly or less than the wild type.

Sequences and labels used below:
B1: Antibody B (AbB) (antibody, IgG1, V domains shown)
VH: EVQLVESGGGLVQPGGSLRLSCAASGFTFTNFWMAWIRQAPGKGLEWVASISSSGGSIYYPDSVKDRFTISRDNSKNTLYLQMNSLRAEDTAVYYCVKFHHYSGGGDAWGQGTLVTVSS
VL: DIQMTQSPSSLSASVGDRVTITCKASQNINKYLDWYQQKPGKAPKLLIHYTNNLHTGIPSRFSGSGSGTDYTLTISSLQPEDFATYYCLQHSSRWTFGGGTKVEIK
B2: AbB_D265C_LALA_H435A (antibody, human IgG1, kappa, L234A L235A, V domains shown)
VH: B1 VH
VL: DIQMTQSPSSLSASVGDRVTITCKASQNINKYLDWYQQKPGKAPKLLIHYTNNLHTGIPSRFSGSGSGTDYTLTISSLQPEDFATYYCLQHSSRWTFGGGTKVEIKR
B3: Antibody C (AbC) (antibody, IgG1, V domains shown)
VH: EVQLVESGGGLVQPGGSLRLSCAASGFTFNNYWMTWVRQAPGKGLEWVSSISSSGGSIYYPDSVKDRFTISRDNAKNSLYLQMNSLRAEDMAVYYCARLYYYDGGGDAWGQGTLVTVSS
VL: B1 VL with D1G, N28D, H49Y, Y50N, S92I
B4: Antibody A (AbA) (antibody, V domains shown)
VH: EVQLLESGGGLVQPGGSLRLSCAASGFTFNNYWMTWVRQAPGKGLEWVSSISSSGGSIYYPDRVKGRFTISRDNSKNTLYLQMNSLRAEDTAVYYCARDERWAGAMDAWGQGTTVTVSS
VL: DIQMTQSPSSLSASVGDRVTITCKASQNINKNLDWYQQKPGKAPKLLIYETNNLQTGVPSRFSGSGSGTDFTLTISSLQPEDFATYYCYQHNSRFTFGQGTKLEIK
B5: AbA_D265C_LALA_H435A (antibody, human IgG1, kappa, L234A L235A, V domains shown)
VH: B4 VH
VL: DIQMTQSPSSLSASVGDRVTITCKASQNINKNLDWYQQKPGKAPKLLIYETNNLQTGVPSRFSGSGSGTDFTLTISSLQPEDFATYYCYQHNSRFTFGQGTKLEIKR
B6: AbC_D265C_LALA_H435A (antibody, human IgG1, kappa, L234A L235A, V domains shown)
VH: B3 VH
VL: B2 VL with D1G, N28D, H49Y, Y50N, S92I
B7: Ab5 (D265C LALA H435A) (antibody, human IgG1, kappa, L234A L235A, V domains shown)
VH: EVQLVESGGGLVQPGGSLRLSCAASGFTFEAYSMNWVRQAPGKGLEWVSYISLSGATIHYADSVKGRFTISRDNAKNSLYLQMNSLRAEDTAVYYCARGGQYYYTSSDYGEVAFDIWGQGTMVTVSS
VL: DIVMTQSPLSLPVTPGEPASISCRSSQSLVSSGYNYLDWYLQKPGQSPQLLIYFGSSRASGVPDRFSGSGSGTDFTLKISRVEAEDVGVYYCMQRRRTPWSFGGGTKVEIKR
B8: Ab7 (D265C LALA H435A) (antibody, human IgG1, kappa, L234A L235A, V domains shown)
VH: B7 VH with E1Q, Q13K, E30G, A31G, L53I, H59T, T105D
VL: DIVMTQSPLSLPVTPGEPASISCRSSQSLVSSGYNYLDWYLQKPGQSPQLLIYFGSSRASGVPDRFSGSGSGTDFTLKISRVEAEDVGVYYCMQRRRTPPFTFGGGTKVEIKR

The first assay deals with human CD45 on live cells (REH-1 cells, primary human PBMCs) (human) (UniProt P08575). The experiment in a line: flow cytometry on human PBMCs. (Flow cytometry measures light scatter and fluorescence of single cells or particles in a stream.)
As to B1, the binding result is listed as “binds”. For B2, the binding entry was “binds”. For B3, the binding result is recorded as “binds”. The same measure, in the same setting: with B4 the entry was “binds”; with B5, “binds”. For B6, the binding entry was “binds”.

A further assay has the same target. The experiment in a line: flow cytometry on human PBMCs and REH-1 cells.
For the molecule B7, the binding entry is listed as “binds”. Regarding B8, the binding result is listed as “binds”.

For a further assay the target is unchanged. The experiment in a line: flow cytometry on REH CD45+ cells, AF488 anti-human IgG secondary antibody.
Regarding B7, the binding result is given as “binds”. For the molecule B8, the binding entry was “binds”.

For another assay the target is unchanged. The assay is described as follows: flow cytometry on primary human PBMCs, AF488 anti-human IgG secondary antibody.
For the molecule B7, the binding entry is listed as “binds”. Take B8: the binding entry was “binds”.

For another assay the target is unchanged. The experiment in a line: flow cytometry on primary human PBMCs ('Human binding'), AF488 anti-human IgG secondary antibody.
Take B1: the binding result is listed as “binds”.

In the case of B3, the binding result is “binds”.

For the molecule B4, the binding entry is “binds”.
